For eight molecules, binding results are on record in paper doi:10.1101/2024.10.24.620053.

Protein sequences, listed by entry. Tags and fused reporters are not part of them.
UniProt Q13283: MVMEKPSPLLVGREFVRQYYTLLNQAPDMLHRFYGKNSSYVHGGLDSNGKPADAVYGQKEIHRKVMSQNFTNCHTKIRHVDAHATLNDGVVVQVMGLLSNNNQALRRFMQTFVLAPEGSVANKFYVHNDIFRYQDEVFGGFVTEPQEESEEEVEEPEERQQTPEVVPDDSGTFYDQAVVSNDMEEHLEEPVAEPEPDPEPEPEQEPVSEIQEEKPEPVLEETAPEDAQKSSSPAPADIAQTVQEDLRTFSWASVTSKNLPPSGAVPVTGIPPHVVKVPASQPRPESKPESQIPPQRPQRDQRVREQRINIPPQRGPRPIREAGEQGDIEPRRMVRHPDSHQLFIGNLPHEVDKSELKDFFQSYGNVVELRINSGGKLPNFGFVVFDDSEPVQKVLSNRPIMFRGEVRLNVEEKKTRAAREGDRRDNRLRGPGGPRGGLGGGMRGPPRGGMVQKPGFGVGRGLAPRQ
UniProt Q9UN81: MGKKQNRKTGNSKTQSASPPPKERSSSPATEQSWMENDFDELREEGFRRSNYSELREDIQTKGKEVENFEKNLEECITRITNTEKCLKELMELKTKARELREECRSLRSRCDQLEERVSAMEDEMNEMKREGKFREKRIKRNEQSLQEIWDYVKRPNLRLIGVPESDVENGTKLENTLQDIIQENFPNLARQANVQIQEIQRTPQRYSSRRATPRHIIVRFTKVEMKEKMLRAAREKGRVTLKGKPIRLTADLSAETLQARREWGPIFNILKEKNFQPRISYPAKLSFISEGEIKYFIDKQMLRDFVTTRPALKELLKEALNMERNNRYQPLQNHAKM
UniProt Q99816: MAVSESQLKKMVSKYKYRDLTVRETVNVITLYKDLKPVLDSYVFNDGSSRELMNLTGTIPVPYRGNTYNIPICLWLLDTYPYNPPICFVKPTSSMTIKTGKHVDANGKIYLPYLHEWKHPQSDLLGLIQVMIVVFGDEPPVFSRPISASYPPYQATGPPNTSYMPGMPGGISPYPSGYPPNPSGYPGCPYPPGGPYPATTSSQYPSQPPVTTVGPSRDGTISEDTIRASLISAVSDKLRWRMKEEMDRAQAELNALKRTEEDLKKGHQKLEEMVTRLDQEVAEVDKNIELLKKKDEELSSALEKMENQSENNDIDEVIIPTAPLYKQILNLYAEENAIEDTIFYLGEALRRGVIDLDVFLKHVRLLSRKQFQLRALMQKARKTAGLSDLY
UniProt Q9P2P1: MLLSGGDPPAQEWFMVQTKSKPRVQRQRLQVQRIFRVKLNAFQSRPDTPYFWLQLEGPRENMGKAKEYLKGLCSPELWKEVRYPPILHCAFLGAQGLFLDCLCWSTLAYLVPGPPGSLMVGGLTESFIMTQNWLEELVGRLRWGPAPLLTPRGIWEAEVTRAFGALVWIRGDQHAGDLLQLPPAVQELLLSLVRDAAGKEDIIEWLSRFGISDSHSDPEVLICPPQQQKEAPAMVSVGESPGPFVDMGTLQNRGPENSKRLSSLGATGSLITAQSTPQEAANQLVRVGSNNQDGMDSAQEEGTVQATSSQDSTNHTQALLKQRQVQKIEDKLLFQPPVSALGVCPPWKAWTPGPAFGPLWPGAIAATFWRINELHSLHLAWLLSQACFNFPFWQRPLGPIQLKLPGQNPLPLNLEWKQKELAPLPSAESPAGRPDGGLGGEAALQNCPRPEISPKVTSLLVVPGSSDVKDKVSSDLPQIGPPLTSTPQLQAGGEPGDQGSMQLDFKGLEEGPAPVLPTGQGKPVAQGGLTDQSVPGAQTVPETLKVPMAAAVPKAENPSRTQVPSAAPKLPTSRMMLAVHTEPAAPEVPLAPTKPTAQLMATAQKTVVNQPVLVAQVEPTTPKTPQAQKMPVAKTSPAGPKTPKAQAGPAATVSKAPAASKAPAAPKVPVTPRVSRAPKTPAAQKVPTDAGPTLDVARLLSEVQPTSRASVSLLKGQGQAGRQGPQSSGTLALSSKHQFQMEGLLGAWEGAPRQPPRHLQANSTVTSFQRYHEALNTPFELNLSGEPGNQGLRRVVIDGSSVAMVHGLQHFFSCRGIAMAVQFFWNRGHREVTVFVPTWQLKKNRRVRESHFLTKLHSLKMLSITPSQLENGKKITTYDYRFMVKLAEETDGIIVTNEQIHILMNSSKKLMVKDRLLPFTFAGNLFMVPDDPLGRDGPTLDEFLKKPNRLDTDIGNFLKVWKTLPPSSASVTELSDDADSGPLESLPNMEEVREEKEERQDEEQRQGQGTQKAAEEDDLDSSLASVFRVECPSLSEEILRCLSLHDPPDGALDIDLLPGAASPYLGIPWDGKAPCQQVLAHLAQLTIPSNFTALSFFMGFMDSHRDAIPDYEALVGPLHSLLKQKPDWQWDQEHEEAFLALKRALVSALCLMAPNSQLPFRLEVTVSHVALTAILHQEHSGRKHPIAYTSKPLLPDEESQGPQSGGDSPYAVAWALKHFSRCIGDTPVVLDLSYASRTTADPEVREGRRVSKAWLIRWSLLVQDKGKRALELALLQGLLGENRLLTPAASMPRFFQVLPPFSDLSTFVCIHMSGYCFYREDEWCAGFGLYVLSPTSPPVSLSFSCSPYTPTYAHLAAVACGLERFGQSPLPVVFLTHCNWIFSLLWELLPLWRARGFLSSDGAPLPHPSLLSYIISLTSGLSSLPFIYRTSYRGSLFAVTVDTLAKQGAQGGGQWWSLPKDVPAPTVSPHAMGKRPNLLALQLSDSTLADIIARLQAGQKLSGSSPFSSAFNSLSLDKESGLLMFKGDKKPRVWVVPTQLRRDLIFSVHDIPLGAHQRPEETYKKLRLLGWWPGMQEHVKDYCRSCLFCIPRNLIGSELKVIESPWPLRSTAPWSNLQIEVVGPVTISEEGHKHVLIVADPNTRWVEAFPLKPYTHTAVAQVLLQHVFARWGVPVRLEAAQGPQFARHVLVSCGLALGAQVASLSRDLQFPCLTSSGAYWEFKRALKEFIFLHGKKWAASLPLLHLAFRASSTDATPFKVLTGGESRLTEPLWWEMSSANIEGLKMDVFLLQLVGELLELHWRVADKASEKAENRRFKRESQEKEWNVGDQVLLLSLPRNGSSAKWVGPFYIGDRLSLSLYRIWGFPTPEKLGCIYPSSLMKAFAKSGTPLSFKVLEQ

For the experiment, the target named is G3BP1 (human (endogenous in HeLa)) (UniProt Q13283). Put plainly: affinity purification with mass spectrometry.

No constants are given. Whether binding was seen depends on the method and setting. Binding seen in cells or lysates may run through a third protein. These calls come from enrichment with a bait or labelling near it, and not all partners need be listed.

For L1RE1 (from UniProt Q9UN81 1-338), the binding result is given as “binds”.

Turning to TSG101 (from UniProt Q99816 1-390), the binding result is reported as “binds”.

In the case of NYNRIN (from UniProt Q9P2P1 1-1898), the binding result was “binds”.

B1: MEX3C (protein, UniProt Q5U5Q3 1-659)
chain: MPSGSSAALALAAAPAPLPQPPPPPPPPPPPLPPPSGGPELEGDGLLLRERLAALGLDDPSPAEPGAPALRAPAAAAQGQARRAAELSPEERAPPGRPGAPEAAELELEEDEEEGEEAELDGDLLEEEELEEAEEEDRSSLLLLSPPAATASQTQQIPGGSLGSVLLPAARFDAREAAAAAAAAGVLYGGDDAQGMMAAMLSHAYGPGGCGAAAAALNGEQAALLRRKSVNTTECVPVPSSEHVAEIVGRQGCKIKALRAKTNTYIKTPVRGEEPIFVVTGRKEDVAMAKREILSAAEHFSMIRASRNKNGPALGGLSCSPNLPGQTTVQVRVPYRVVGLVVGPKGATIKRIQQQTHTYIVTPSRDKEPVFEVTGMPENVDRAREEIEMHIAMRTGNYIELNEENDFHYNGTDVSFEGGTLGSAWLSSNPVPPSRARMISNYRNDSSSSLGSGSTDSYFGSNRLADFSPTSPFSTGNFWFGDTLPSVGSEDLAVDSPAFDSLPTSAQTIWTPFEPVNPLSGFGSDPSGNMKTQRRGSQPSTPRLSPTFPESIEHPLARRVRSDPPSTGNHVGLPIYIPAFSNGTNSYSSSNGGSTSSSPPESRRKHDCVICFENEVIAALVPCGHNLFCMECANKICEKRTPSCPVCQTAVTQAIQIHS
Regarding B1, the binding entry is on record as “binds”.

B2: OAS3 (protein, UniProt Q9Y6K5 1-1087)
chain: MDLYSTPAAALDRFVARRLQPRKEFVEKARRALGALAAALRERGGRLGAAAPRVLKTVKGGSSGRGTALKGGCDSELVIFLDCFKSYVDQRARRAEILSEMRASLESWWQNPVPGLRLTFPEQSVPGALQFRLTSVDLEDWMDVSLVPAFNVLGQAGSGVKPKPQVYSTLLNSGCQGGEHAACFTELRRNFVNIRPAKLKNLILLVKHWYHQVCLQGLWKETLPPVYALELLTIFAWEQGCKKDAFSLAEGLRTVLGLIQQHQHLCVFWTVNYGFEDPAVGQFLQRQLKRPRPVILDPADPTWDLGNGAAWHWDLLAQEAASCYDHPCFLRGMGDPVQSWKGPGLPRAGCSGLGHPIQLDPNQKTPENSKSLNAVYPRAGSKPPSCPAPGPTGAASIVPSVPGMALDLSQIPTKELDRFIQDHLKPSPQFQEQVKKAIDIILRCLHENCVHKASRVSKGGSFGRGTDLRDGCDVELIIFLNCFTDYKDQGPRRAEILDEMRAQLESWWQDQVPSLSLQFPEQNVPEALQFQLVSTALKSWTDVSLLPAFDAVGQLSSGTKPNPQVYSRLLTSGCQEGEHKACFAELRRNFMNIRPVKLKNLILLVKHWYRQVAAQNKGKGPAPASLPPAYALELLTIFAWEQGCRQDCFNMAQGFRTVLGLVQQHQQLCVYWTVNYSTEDPAMRMHLLGQLRKPRPLVLDPADPTWNVGHGSWELLAQEAAALGMQACFLSRDGTSVQPWDVMPALLYQTPAGDLDKFISEFLQPNRQFLAQVNKAVDTICSFLKENCFRNSPIKVIKVVKGGSSAKGTALRGRSDADLVVFLSCFSQFTEQGNKRAEIISEIRAQLEACQQERQFEVKFEVSKWENPRVLSFSLTSQTMLDQSVDFDVLPAFDALGQLVSGSRPSSQVYVDLIHSYSNAGEYSTCFTELQRDFIISRPTKLKSLIRLVKHWYQQCTKISKGRGSLPPQHGLELLTVYAWEQGGKDSQFNMAEGFRTVLELVTQYRQLCIYWTINYNAKDKTVGDFLKQQLQKPRPIILDPADPTGNLGHNARWDLLAKEAAACTSALCCMGRNGIPIQPWPVKAAV
With B2, the binding entry is given as “binds”.

B3: KHDRBS3 (protein, UniProt O75525 1-346)
chain: MEEKYLPELMAEKDSLDPSFTHALRLVNQEIEKFQKGEGKDEEKYIDVVINKNMKLGQKVLIPVKQFPKFNFVGKLLGPRGNSLKRLQEETLTKMSILGKGSMRDKAKEEELRKSGEAKYFHLNDDLHVLIEVFAPPAEAYARMGHALEEIKKFLIPDYNDEIRQAQLQELTYLNGGSENADVPVVRGKPTLRTRGVPAPAITRGRGGVTARPVGVVVPRGTPTPRGVLSTRGPVSRGRGLLTPRARGVPPTGYRPPPPPPTQETYGEYDYDDGYGTAYDEQSYDSYDNSYSTPAQSGADYYDYGHGLSEETYDSYGQEEWTNSRHKAPSARTAKGVYRDQPYGRY
Turning to B3, the binding entry was “binds”.

B4: TCAF1 (protein, UniProt Q9Y4C2 1-921)
chain: MATPSAAFEALMNGVTSWDVPEDAVPCELLLIGEASFPVMVNDMGQVLIAASSYGRGRLVVVSHEDYLVEAQLTPFLLNAVGWLCSSPGAPIGVHPSLAPLAKILEGSGVDAKVEPEVKDSLGVYCIDAYNETMTEKLVKFMKCGGGLLIGGQAWDWANQGEDERVLFTFPGNLVTSVAGIYFTDNKGDTSFFKVSKKMPKIPVLVSCEDDLSDDREELLHGISELDISNSDCFPSQLLVHGALAFPLGLDSYHGCVIAAARYGRGRVVVTGHKVLFTVGKLGPFLLNAVRWLDGGRRGKVVVQTELRTLSGLLAVGGIDTSIEPNLTSDASVYCFEPVSEVGVKELQEFVAEGGGLFVGAQAWWWAFKNPGVSPLARFPGNLLLNPFGISITSQSLNPGPFRTPKAGIRTYHFRSTLAEFQVIMGRKRGNVEKGWLAKLGPDGAAFLQIPAEEIPAYMSVHRLLRKLLSRYRLPVATRENPVINDCCRGAMLSLATGLAHSGSDLSLLVPEIEDMYSSPYLRPSESPITVEVNCTNPGTRYCWMSTGLYIPGRQIIEVSLPEAAASADLKIQIGCHTDDLTRASKLFRGPLVINRCCLDKPTKSITCLWGGLLYIIVPQNSKLGSVPVTVKGAVHAPYYKLGETTLEEWKRRIQENPGPWGELATDNIILTVPTANLRTLENPEPLLRLWDEVMQAVARLGAEPFPLRLPQRIVADVQISVGWMHAGYPIMCHLESVQELINEKLIRTKGLWGPVHELGRNQQRQEWEFPPHTTEATCNLWCVYVHETVLGIPRSRANIALWPPVREKRVRIYLSKGPNVKNWNAWTALETYLQLQEAFGWEPFIRLFTEYRNQTNLPTENVDKMNLWVKMFSHQVQKNLAPFFEAWAWPIQKEVATSLAYLPEWKENIMKLYLLTQMPH
For B4, the binding entry is “binds”.

B5: ATXN10 (protein, UniProt Q9UBB4 1-475)
chain: MAAPRPPPARLSGVMVPAPIQDLEALRALTALFKEQRNRETAPRTIFQRVLDILKKSSHAVELACRDPSQVENLASSLQLITECFRCLRNACIECSVNQNSIRNLDTIGVAVDLILLFRELRVEQESLLTAFRCGLQFLGNIASRNEDSQSIVWVHAFPELFLSCLNHPDKKIVAYSSMILFTSLNHERMKELEENLNIAIDVIDAYQKHPESEWPFLIITDLFLKSPELVQAMFPKLNNQERVTLLDLMIAKITSDEPLTKDDIPVFLRHAELIASTFVDQCKTVLKLASEEPPDDEEALATIRLLDVLCEMTVNTELLGYLQVFPGLLERVIDLLRVIHVAGKETTNIFSNCGCVRAEGDISNVANGFKSHLIRLIGNLCYKNKDNQDKVNELDGIPLILDNCNISDSNPFLTQWVIYAIRNLTEDNSQNQDLIAKMEEQGLADASLLKKVGFEVEKKGEKLILKSTRDTPKP
Take B5: the binding result is reported as “binds”.
